Measurements: US20050127321A1, “Compositions containing lactone compatibilizers” (priority 2003, published 2005)

Assays:
[1] = tested on: New Zealand White rabbits; test: Acute skin irritation/corrosive potential, scored on the Draize scale; type: in vivo; conditions: 0.5 mL undiluted, approximately 4 hours exposure, semi-occlusive, evaluated up to 72 hours
Experimental: Compositions of the present invention were evaluated for acute skin irritation/corrosive potential in New Zealand White rabbits. An aliquot of 0.5 mL of undiluted compatibilizer was administered to a localized site on the backs of the animals. The test sites were covered with a semi-oclusive dressing to ensure contact between the skin and the test substance. The animals were exposed to the test substances for approximately 4 hours. The test sites were evaluated for erythrema, edema, and other evidence of dermal effects for up to 72 hours following the removal of the test substance. Observed dermal effects were scored according to the Draize scale. The reversibility of dermal effects was assessed for up to 14 days, as necessary.

[2] = Kinematic viscosity of lactone compatibilizers; type: physicochemical; conditions: at 40° C.
[3] = Phase separation temperature of compatibilizer / Zerol 150 alkylbenzene oil / R134a mixtures (cloud point on cooling); type: physicochemical
Experimental: The phase separation temperatures for lactone compatibilizers of the present invention when combined with Zerol® 150 alkylbenzene oil were determined. […] The glass tube was sealed at one end, and the other end was sealed to a Teflon® vacuum valve stopcock. This entire apparatus was tared, and was attached at valve E to a high vacuum line capable of achieving 10^−4 to 10^−5 torr (See FIG. 1). The pressure was measured by a mercury manometer, F. All five valves, A, B, C, D and E were attached to the manifold via greased ground-glass joints. Valve A joined the manifold to the source of refrigerant. Valve B joined a flask comprising fluorocarbon refrigerant, once loaded into the manifold. Valve C joined a 125.5 mL calibrated vessel to the manifold. And valve D joined a 5 mm OD in leg glass tube 150 mm in length containing oil and compatibilizer.
The glass tube, refrigerant container, and calibrated volume were evacuated by opening valve B, C, D, and E, and keeping valve A closed. After vacuum was achieved, Valve D and E were closed. […]
The phase separation temperature of the mixture was determined by manually shaking the contents of the glass tube while cooling the mixture by one degree Centigrade intervals until a cloudpoint/phase separation was visually observed. […]

Question: With `CCCCCCCC1CCC(=O)O1` (stereo not drawn) [gamma-undecalactone] as the molecule, how does the Classification [1] read?
Answer: The Classification was “Not a skin irritant”.

Question: And the kinematic viscosity [2]?
Answer: Its kinematic viscosity is 5.4 centistokes.

Question: And the “Phase Separation Temperature” value [3]?
Answer: Its value is −6 deg C.
